These are yes or no findings as the source states them, for the method shown. Some binding calls cover weakened binding; strength is not graded here.
Target: recombinant proliferating cell nuclear antigen (PCNA) (UniProt P12004)
Test: SPR; Biacore T200; PCNA immobilised on a CM5 chip; p21 (2 uM), NAMPT (120 nM) or a mixture of both injected at 20 ul/min for 100 s, dissociation followed for 400 s; both purified

Protein sequences, listed by entry. Tags and fused reporters are not part of them.
UniProt P12004: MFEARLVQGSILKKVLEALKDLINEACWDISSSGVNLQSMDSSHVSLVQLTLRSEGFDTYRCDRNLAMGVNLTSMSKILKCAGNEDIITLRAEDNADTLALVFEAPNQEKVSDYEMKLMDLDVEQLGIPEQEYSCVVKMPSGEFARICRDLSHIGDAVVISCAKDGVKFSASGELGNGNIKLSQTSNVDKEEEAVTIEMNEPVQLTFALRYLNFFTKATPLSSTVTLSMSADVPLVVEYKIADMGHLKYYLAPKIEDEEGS
UniProt P43490: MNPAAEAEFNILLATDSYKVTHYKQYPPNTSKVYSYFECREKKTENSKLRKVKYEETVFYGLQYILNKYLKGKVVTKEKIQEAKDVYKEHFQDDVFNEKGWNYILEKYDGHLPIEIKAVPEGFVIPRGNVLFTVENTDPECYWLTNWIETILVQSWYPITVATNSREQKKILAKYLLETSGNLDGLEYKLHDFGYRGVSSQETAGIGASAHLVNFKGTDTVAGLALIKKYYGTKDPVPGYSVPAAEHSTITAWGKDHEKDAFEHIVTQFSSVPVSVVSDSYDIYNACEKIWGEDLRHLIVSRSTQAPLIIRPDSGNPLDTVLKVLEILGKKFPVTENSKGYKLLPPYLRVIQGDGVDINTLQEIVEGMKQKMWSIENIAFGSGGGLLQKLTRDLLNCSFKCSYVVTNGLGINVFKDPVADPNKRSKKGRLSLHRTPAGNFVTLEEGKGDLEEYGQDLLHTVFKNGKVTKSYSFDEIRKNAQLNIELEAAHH

binding: binds
Substance: purified nicotinamide phosphoribosyltransferase (NAMPT) (from UniProt P43490 1-491) (enzyme)

Source: PMC5069676
